Assay results: publication PMC7819943, “Rice protein-binding microarrays: a tool to detect cis-acting elements near promoter regions in rice”
Some of the results follow.

Sequences of proteins named here, by UniProt entry; tags and fusion partners are left off.
UniProt Q0JBA9, entry or part of it: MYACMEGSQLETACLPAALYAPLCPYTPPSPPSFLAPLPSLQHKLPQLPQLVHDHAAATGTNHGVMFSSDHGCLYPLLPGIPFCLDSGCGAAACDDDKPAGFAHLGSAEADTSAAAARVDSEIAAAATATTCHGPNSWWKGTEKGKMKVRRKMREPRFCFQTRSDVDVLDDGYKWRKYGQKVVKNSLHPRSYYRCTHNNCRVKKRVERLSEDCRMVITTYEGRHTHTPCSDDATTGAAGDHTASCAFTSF

These sequences were tested against OsWRKY34 (Oryza sativa, UniProt Q0JBA9 1-250) (assay: protein-binding microarray (RPBM); PBS, 2% BSA, 51.3 ng/ul salmon testes DNA, 50 uM zinc acetate, 200 nM TF, 25 C, 1 h; high values mean tight binding). Conditions: protein: recombinant; tags: N-terminal polyhistidine and DsRed monomer fusion (pET32a); label: CyDye5-dUTP incorporated in the synthesized complementary strand; 3' TTTTT single-stranded linker to array surface; dsDNA, one strand shown.
Outline: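 Binding signal is defined as the fluorescence intensity of each feature in arbitrary units, read on an Axon 4000B scanner. Transcription factors with N-terminal polyhistidine and DsRed fusions came from E. coli BL21-CodonPlus and were purified on Ni–NTA. They were incubated at 200 nM for 1 h at 25 °C on a custom Agilent array that had been made double-stranded with Cy5-dUTP, with 50 µM zinc acetate present, and the array was washed.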
“CGGGCGCACGTGTTTCATCCCTCTAATTCTGAATCCCCACCGGAGTCACCTAGTGCAG” was tested, and the binding signal was 8270 fluorescence intensity (a.u.). With “ATATTTCAACAGACTTTTAAAAAAGTTTTTATTGTTTGACCGGAGTCACCTAGTGCAG” the binding signal was 8380 fluorescence intensity (a.u.). In the case of “GTGTTTGCATTGGAAGAGTAATGTTTAGTACTAGTTTCTCCGGAGTCACCTAGTGCAG”, the binding signal is reported as 8510 fluorescence intensity (a.u.). “TGTACTAGAATATGTCACATCCAGTCTTAGATTCGTTTTTCGGAGTCACCTAGTGCAG” was tested, and the binding signal was 9120 fluorescence intensity (a.u.). “TGTTGTTGCCGGAATGTGTGTGTGTGCGTGTGTGTGTGTGCGGAGTCACCTAGTGCAG” was tested, and the binding signal was 8720 fluorescence intensity (a.u.). In the case of “ATGTGTAATCAATATTTTTTTATGTGAAATTTGCACGTATCGGAGTCACCTAGTGCAG”, the binding signal is reported as 8380 fluorescence intensity (a.u.). In the case of “CTTGCACGCGACGGCCTGGCATTTGTGTACGGCACCGCCCCGGAGTCACCTAGTGCAG”, the binding signal is reported as 8030 fluorescence intensity (a.u.). In the case of “CGCCGCCTTTGCCACTATCGCTCCCTCCTCCAGCCGGATCCGGAGTCACCTAGTGCAG”, the binding signal is reported as 10600 fluorescence intensity (a.u.). “ACTTGTGCCGATCTCGTGTAGTTTGAATTTTCCGCAAAACCGGAGTCACCTAGTGCAG” was tested, and the binding signal was 8230 fluorescence intensity (a.u.). With “CACTACGATTATACTGTAATTACATCTATCAAATTTTTAACGGAGTCACCTAGTGCAG” the binding signal was 8650 fluorescence intensity (a.u.). With “TCATTGACTTTTCGATCAACGTTTGACCATTTGTTTTATTCGGAGTCACCTAGTGCAG” the binding signal was 16700 fluorescence intensity (a.u.). In the case of “CAAAGCAATCTTGGAGTCATCTTCATTTCCATGTCCTGTTCGGAGTCACCTAGTGCAG”, the binding signal is reported as 11600 fluorescence intensity (a.u.). “TCACACAGTCACTTGTTGGGTCTTTGCAATTGCTTTCCTCCGGAGTCACCTAGTGCAG” was tested, and the binding signal was 8610 fluorescence intensity (a.u.). For “ATCTTAATTTTATGATATGACGTTTTATTCTGTACTATCTCGGAGTCACCTAGTGCAG”, the binding signal was 8930 fluorescence intensity (a.u.). “CCTAACCGCAAAACACCGGATGTAGCGCATCCTTCATCTTCGGAGTCACCTAGTGCAG” was tested, and the binding signal was 8670 fluorescence intensity (a.u.). In the case of “TGATATCTACACCCACTCGTCTCGCGCCTATATGAGCCGGCGGAGTCACCTAGTGCAG”, the binding signal is reported as 9360 fluorescence intensity (a.u.). With “CACACCACATCACACCGCACACCACACCGATCCCGACCAACGGAGTCACCTAGTGCAG” the binding signal was 9320 fluorescence intensity (a.u.). “TAGTTTGCATCGACCATTATTCCATTTTCTGTTTTGATCTCGGAGTCACCTAGTGCAG” was tested, and the binding signal was 10600 fluorescence intensity (a.u.). With “GGGCCTTTTTCATCAAAATATTTTTTTCTCGGACCGTTTTCGGAGTCACCTAGTGCAG” the binding signal was 8180 fluorescence intensity (a.u.). “CCTCCATCTCCTCTCCTCCGATGCTTCACCTCGTCGCCCTCGGAGTCACCTAGTGCAG” was tested, and the binding signal was 8660 fluorescence intensity (a.u.). For “GACACCCTGGTTTCCGTGCCCAATATTTAACCGTTCGTTTCGGAGTCACCTAGTGCAG”, the binding signal was 8080 fluorescence intensity (a.u.). With “GCTTCGCTTTGCGCTCTCTCTATCTCTCTCTCTTCCAAAACGGAGTCACCTAGTGCAG” the binding signal was 8490 fluorescence intensity (a.u.). For “CATCACACGCAAAATCATCTTTCTTTATCATGATTCACACCGGAGTCACCTAGTGCAG”, the binding signal was 11000 fluorescence intensity (a.u.). “AGCGGCGTATTTCTTCTCGTCTTTCTCCCATCCGCTGCCTCGGAGTCACCTAGTGCAG” was tested, and the binding signal was 11200 fluorescence intensity (a.u.). For “GCGGCGGGGTCGATGTGTGACGGCGGCGGCGGGGTCGATGCGGAGTCACCTAGTGCAG”, the binding signal was 11800 fluorescence intensity (a.u.). For “GCTATATATTCCTCCTCGTCGTCGCCATGGCACCTTCACTCGGAGTCACCTAGTGCAG”, the binding signal was 10200 fluorescence intensity (a.u.). With “GCGATATTGACCGAGTCTTTGTTCCACGTGGCGTTGACGTCGGAGTCACCTAGTGCAG” the binding signal was 10200 fluorescence intensity (a.u.). “TAGCTTTGGAGGAGGAGGAGGAGGAGGGGCGCGAGCCATGCGGAGTCACCTAGTGCAG” was tested, and the binding signal was 10800 fluorescence intensity (a.u.). With “CCCCAGCGAAAAATTTTCGCGCTCACGCACGCACACACGCCGGAGTCACCTAGTGCAG” the binding signal was 9430 fluorescence intensity (a.u.). With “TGCCCACCAACCTCTCTTTCTCTTTTCTCTCTCGGTCTCGCGGAGTCACCTAGTGCAG” the binding signal was 8200 fluorescence intensity (a.u.). With “TCCCTAAATATATGACGTTGTTGACTTTTTAAAACATTTTCGGAGTCACCTAGTGCAG” the binding signal was 11200 fluorescence intensity (a.u.). With “TATTTATGGACTTCCGATGGGTTTGGTTGGCTGTTCTGCTCGGAGTCACCTAGTGCAG” the binding signal was 15000 fluorescence intensity (a.u.). In the case of “GCCTCTCCATCTTCGTGGCCGACCGCCGCGTCGCGCACGCCGGAGTCACCTAGTGCAG”, the binding signal is reported as 11600 fluorescence intensity (a.u.). In the case of “ATATACAGTACACGTTCTTGCCCTCATTGCCACATAGTACCGGAGTCACCTAGTGCAG”, the binding signal is reported as 11900 fluorescence intensity (a.u.). For “CTCACCTCGGCCCCACCCATACTACCCACTCATTGCCACGCGGAGTCACCTAGTGCAG”, the binding signal was 8970 fluorescence intensity (a.u.). With “GAACGGTCAAACATGTTTAAAAAAGTCAATGACGTCAGATCGGAGTCACCTAGTGCAG” the binding signal was 8730 fluorescence intensity (a.u.). With “TTGTAATGGTTGTCCTGCCCTCACATACCTTGAAAAAACACGGAGTCACCTAGTGCAG” the binding signal was 9340 fluorescence intensity (a.u.). For “TCCACCTCCCTGATGGGGCGGAGGTAGAGTATGGAAGGGGCGGAGTCACCTAGTGCAG”, the binding signal was 8260 fluorescence intensity (a.u.). For “GCGCTTCAGGTATGCTTTTTCTATGTGCAAACATATCTTACGGAGTCACCTAGTGCAG”, the binding signal was 8380 fluorescence intensity (a.u.). For “GCAATTTTTTACGCCCACACGACTGTCCGAGAGCAATATGCGGAGTCACCTAGTGCAG”, the binding signal was 8170 fluorescence intensity (a.u.). For “AGCACTCCTCCATCGCCTCCTCTAAGATCGCATTCTCAACCGGAGTCACCTAGTGCAG”, the binding signal was 11300 fluorescence intensity (a.u.). With “GATGTTCGTTCAATTCCAGTTCCAGCGGTCCAGCCATTCCCGGAGTCACCTAGTGCAG” the binding signal was 10100 fluorescence intensity (a.u.).
